Assay: Drug/reagent loading (localization) efficiency on PCL nanowire arrays by confocal fluorescence imaging
Type: physicochemical
Conditions: elevated 40 μm features with PCL nanowires, loaded at 5 μg/cm^2, inverted and dried; averaged confocal Z-stacks

Substance	Drug loading efficiency (ratio of fluorescence intensity over micropatterned regions to intensity over entire analyzed region) [%]
Oregon Green 488 paclitaxel	94±1
FITC-BSA: water-soluble protein, fluorescein isothiocyanate labeled bovine serum albumin	88±2
